In US20080181886A1, “Polypeptides That Bind Baff And/Or April” (Genentech, Inc., priority 2004, published 2008):
These are yes or no findings as the source states them, for the method shown. Some binding calls cover weakened binding; strength is not graded here. Each block holds one binder with its values, some of them ahead of it.

Protein sequences, listed by entry. Tags and fused reporters are not part of them. Lines headed by an entry give the natural chain unless they say otherwise; changes in a name come on top. Residues count along the entry.
UniProt Q9Y275: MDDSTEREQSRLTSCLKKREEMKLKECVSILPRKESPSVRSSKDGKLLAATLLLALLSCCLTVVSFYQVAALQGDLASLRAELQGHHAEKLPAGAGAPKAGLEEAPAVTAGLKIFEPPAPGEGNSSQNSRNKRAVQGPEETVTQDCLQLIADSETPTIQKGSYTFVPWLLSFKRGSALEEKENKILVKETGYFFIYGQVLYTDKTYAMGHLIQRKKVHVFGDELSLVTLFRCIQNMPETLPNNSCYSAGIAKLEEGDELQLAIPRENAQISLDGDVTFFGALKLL
UniProt Q9D777, residues 104-241: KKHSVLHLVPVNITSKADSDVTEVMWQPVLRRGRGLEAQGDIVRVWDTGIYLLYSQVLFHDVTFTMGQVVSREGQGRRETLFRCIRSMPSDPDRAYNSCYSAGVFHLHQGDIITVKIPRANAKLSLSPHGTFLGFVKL

Columns and labels:
human BAFF (human) [1] = molecular target: human BAFF (human) (UniProt Q9Y275); assay: SPR competition
TRX-APRIL (mouse) = TRX-APRIL (mouse) (UniProt Q9D777); assay: SPR competition
human BAFF (human) [2] = molecular target: human BAFF (human) (UniProt Q9Y275); assay: SPR competition, FIG. 8B
human BAFF (human) [3] = molecular target: human BAFF (human) (UniProt Q9Y275); assay: SPR competition, FIG. 3B

- binding (human BAFF (human) [1]): binds
- binding (TRX-APRIL (mouse)): binds
B1: hTACI CRD1 LS (human TACI CRD1 R32-R67 with NHQSQRT replaced by GQHPKQ of CRD2) (receptor)
chain: RSCPEEQYWDPLLGTCMSCKTICGQHPKQCAAFCR

- binding (human BAFF (human) [2]): binds
- binding (human BAFF (human) [3]): binds
- binding (human BAFF (human) [1]): binds
- binding (TRX-APRIL (mouse)): binds
B2: TACI_d1 (first CRD of TACI, residues 32-67) (receptor)
chain: RSCPEEQYWDPLLGTCMSCKTICNHQSQRTCAAFCR
